According to article PMC4286236:
Results are given in words; binding and its absence hold for the method and conditions named. Binding seen in cells or lysates may run through a third protein. Some binding calls cover weakened binding; strength is not graded here.

Tests used:
[1] = target: Danio rerio PlxnA3 extracellular + TM + JM (amino acids 1-1314) M1281L, BRET^2 constructs (Danio rerio) (UniProt B0S5N4); assay: FRET or BRET; BRET^2 in COS-7 cells co-transfected with PlxnA3(1-1314)-RLuc and PlxnA3(1-1314)-GFP^2; DeepBlueC; normalised energy transfer efficiency ratio; without Nrp2a and SEMA3F
[2] = target: Danio rerio PlxnA3 extracellular + TM + JM (amino acids 1-1314) M1281L, BRET^2 constructs (Danio rerio) (UniProt B0S5N4); assay: FRET or BRET; BRET^2 in COS-7 cells co-transfected with PlxnA3(1-1314)-RLuc, PlxnA3(1-1314)-GFP^2 and full-length FLAG-tagged Nrp2a, treated with AP-SEMA3F expression media for a minimum of 1.5 hours at 37 C, 5% CO2
[3] = target: Danio rerio PlxnA3 extracellular + TM + JM (amino acids 1-1314) M1281F, BRET^2 constructs (Danio rerio) (UniProt B0S5N4); assay: as above

binding [1]	binding [2]	binding [3]	Binder
binds	binds		Danio rerio PlxnA3 extracellular + TM + JM (amino acids 1-1314) M1281L, BRET^2 constructs (receptor, UniProt B0S5N4 21-1314) FPMILSERPEVTGSFKVKDTSLTHLTVHRKTGEVFVGAINRVYKLSANLTETRSHQTGPVEDNAKCYPPPSVRACTQKLESTDNVNKLLLVDYAGNRLVACGSIWQGVCQFLRLEDLFKLGEPHHRKEHYLSGAKESDGMAGVVVGDDDGDLKKKKKGGSRLFIGAAIDGKSEYFPTLSSRKLVADEESVNMFSLVYQDEFVSSQIKIPSDTLSQYPAFDIYYVYGFSSRTYIYFLTLQLDTQLTQVDVTGEKFFTSKIVRMCSNDTEFYSYVEFPLGCTKDGVEYRLVQAAYKHRPGKILAQALGLSEDEDVLFVIFSQGQKNRANPPRETVLCLFTLHQINLAMRERIKSCYRGEGKLSLPWLLNKELPCINTPKQIGDDFCGLVLNQPLGGLMVIEGIPLFDDRTDGMASVAAYTYGDHSVVFVGTRSGHLKKIRVNGVPPPSENALLYETVTVVEGSPILRDMVFSPDYQYIYLLSDKQVSRLPVESCSQYSSCKTCLGSGDPHCGWCVLHNKCSRKEACEKWAEPLHFSTELKQCVDITVTPDNMSVTSVSTQLSVKVANVPNLSAGVTCVFEELTESPGEVLAEGQILCMSPSLRDVPSVTQGYGDKRVVKLSLKSKETGLKFITTDFVFYNCSVLQSCSSCVSSPFPCNWCKYRHICTNNVAECSFQEGRVSSAEGCPQILPSSDILVPAGIVRPITLRARNLPQPQSGQKNYECVFNIQGKVQRIPAVRFNSSCIQCQNTSYWYEGNEMGDLPVDFSIVWDGDFPIDKPSSMRALLYKCEAQRDSCGLCLKADSTFECGWCLADKKCLLKQHCPSAEHNWMHQGRRNIRCSHPRITKIRPLTGPKEGGTRVTIEGENLGLQVREITHVRVAGVRCNPAAAEYISAERIVCDMEESLMSSPPGGPVELCIGDCSAEYRTQSTQTYSFVMPSFSRVRPEKGPVSGGTRLTISGRHLDAGSAVTVFLAQEECLFVRRTVREIVCVTPPSASGSGPSSVKLFIDKAEITSDTRYIYTEDPNISTIEPNWSIINGSTSLTVTGTNLLTIQEPKVRAKYGGVETTNISSLVNDSVMTCLAPGIIYTKREAPESGVHPDEFGFILDHVSALLILNGTPFTYYPNPTFEPLGNAGILEVKPGSPIILKGKNLIPPAPGNIRLNYSVTIGETPCLLTVSESQLLCDSPDLTGEQRVMILVGGLEYSPGMLHIYSDSTLTLPAIIGIGAGGGVLLIAIIAVLIAYKRKTRDADRTLKRLQLQLDNLESRVALECKEAFAELQTDIQELTNDMDGVK
		binds	Danio rerio PlxnA3 extracellular + TM + JM (amino acids 1-1314) M1281F, BRET^2 constructs (receptor, UniProt B0S5N4 21-1314) FPMILSERPEVTGSFKVKDTSLTHLTVHRKTGEVFVGAINRVYKLSANLTETRSHQTGPVEDNAKCYPPPSVRACTQKLESTDNVNKLLLVDYAGNRLVACGSIWQGVCQFLRLEDLFKLGEPHHRKEHYLSGAKESDGMAGVVVGDDDGDLKKKKKGGSRLFIGAAIDGKSEYFPTLSSRKLVADEESVNMFSLVYQDEFVSSQIKIPSDTLSQYPAFDIYYVYGFSSRTYIYFLTLQLDTQLTQVDVTGEKFFTSKIVRMCSNDTEFYSYVEFPLGCTKDGVEYRLVQAAYKHRPGKILAQALGLSEDEDVLFVIFSQGQKNRANPPRETVLCLFTLHQINLAMRERIKSCYRGEGKLSLPWLLNKELPCINTPKQIGDDFCGLVLNQPLGGLMVIEGIPLFDDRTDGMASVAAYTYGDHSVVFVGTRSGHLKKIRVNGVPPPSENALLYETVTVVEGSPILRDMVFSPDYQYIYLLSDKQVSRLPVESCSQYSSCKTCLGSGDPHCGWCVLHNKCSRKEACEKWAEPLHFSTELKQCVDITVTPDNMSVTSVSTQLSVKVANVPNLSAGVTCVFEELTESPGEVLAEGQILCMSPSLRDVPSVTQGYGDKRVVKLSLKSKETGLKFITTDFVFYNCSVLQSCSSCVSSPFPCNWCKYRHICTNNVAECSFQEGRVSSAEGCPQILPSSDILVPAGIVRPITLRARNLPQPQSGQKNYECVFNIQGKVQRIPAVRFNSSCIQCQNTSYWYEGNEMGDLPVDFSIVWDGDFPIDKPSSMRALLYKCEAQRDSCGLCLKADSTFECGWCLADKKCLLKQHCPSAEHNWMHQGRRNIRCSHPRITKIRPLTGPKEGGTRVTIEGENLGLQVREITHVRVAGVRCNPAAAEYISAERIVCDMEESLMSSPPGGPVELCIGDCSAEYRTQSTQTYSFVMPSFSRVRPEKGPVSGGTRLTISGRHLDAGSAVTVFLAQEECLFVRRTVREIVCVTPPSASGSGPSSVKLFIDKAEITSDTRYIYTEDPNISTIEPNWSIINGSTSLTVTGTNLLTIQEPKVRAKYGGVETTNISSLVNDSVMTCLAPGIIYTKREAPESGVHPDEFGFILDHVSALLILNGTPFTYYPNPTFEPLGNAGILEVKPGSPIILKGKNLIPPAPGNIRLNYSVTIGETPCLLTVSESQLLCDSPDLTGEQRVMILVGGLEYSPGMLHIYSDSTLTLPAIIGIGAGGGVLLIAIIAVLIAYKRKTRDADRTLKRLQLQFDNLESRVALECKEAFAELQTDIQELTNDMDGVK
